Measured values taken from publication PMC4858679.
Changes are numbered by the printed parent chain. Numbers in names are those of the source. Results are given in words; binding and its absence hold for the method and conditions named. For some of these results: In cells and extracts the contact can be indirect. Some binding calls cover weakened binding; strength is not graded here.

Columns and labels:
[1] = biological target: T1, Endonuclease Q from Pyrococcus furiosus (Pyrococcus furiosus (endogenous in P. furiosus cells)) (UniProt Q8U0N5); assay: co-IP; extracts from exponentially growing P. furiosus cells; antibodies raised against TkoEndoQ and PfuPCNA
T1 sequence: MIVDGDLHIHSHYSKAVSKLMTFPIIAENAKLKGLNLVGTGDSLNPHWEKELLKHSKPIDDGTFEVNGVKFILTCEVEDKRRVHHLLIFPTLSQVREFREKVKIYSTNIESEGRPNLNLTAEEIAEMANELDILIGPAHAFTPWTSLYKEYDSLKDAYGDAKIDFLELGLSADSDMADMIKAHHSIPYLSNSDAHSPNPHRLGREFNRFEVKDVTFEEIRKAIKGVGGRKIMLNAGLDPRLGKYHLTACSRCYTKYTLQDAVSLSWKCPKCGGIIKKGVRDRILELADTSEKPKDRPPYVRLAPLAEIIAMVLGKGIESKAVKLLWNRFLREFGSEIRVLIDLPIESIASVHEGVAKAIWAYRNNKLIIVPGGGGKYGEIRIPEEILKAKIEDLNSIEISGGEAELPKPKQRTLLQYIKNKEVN

[2] = biological target: T2, Proliferating cell nuclear antigen from Pyrococcus furiosus (Pyrococcus furiosus (endogenous in P. furiosus cells)) (UniProt O73947); assay: as above
T2 sequence: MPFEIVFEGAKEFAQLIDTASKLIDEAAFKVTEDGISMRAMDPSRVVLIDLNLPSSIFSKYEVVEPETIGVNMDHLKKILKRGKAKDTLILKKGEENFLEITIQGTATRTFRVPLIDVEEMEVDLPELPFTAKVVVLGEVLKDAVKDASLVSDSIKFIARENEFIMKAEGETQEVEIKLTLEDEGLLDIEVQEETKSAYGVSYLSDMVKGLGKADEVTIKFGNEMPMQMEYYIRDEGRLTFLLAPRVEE

[3] = biological target: T3, Proliferating cell nuclear antigen 1 from Thermococcus kodakarensis, wild type (Thermococcus kodakarensis) (UniProt Q5JF32); assay: SPR; Biacore J; TkoPCNA1 immobilised on a CM5 chip, TkoEndoQ injected (12-800 nM, 120 s); 25 °C; 10 mM HEPES pH 7.4, 0.4 M NaCl, 0.005% Tween20; 1:1 reaction model; apparent KD; both purified
T3 sequence: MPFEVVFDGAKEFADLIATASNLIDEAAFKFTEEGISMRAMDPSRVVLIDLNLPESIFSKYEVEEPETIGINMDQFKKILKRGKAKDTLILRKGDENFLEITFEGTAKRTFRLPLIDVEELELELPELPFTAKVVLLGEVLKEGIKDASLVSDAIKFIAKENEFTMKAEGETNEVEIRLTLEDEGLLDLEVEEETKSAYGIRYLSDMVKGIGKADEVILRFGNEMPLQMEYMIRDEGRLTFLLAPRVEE

[4] = biological target: TkoPCNA1 with the mutations E143A/D147A at the interface of the protomers (Thermococcus kodakarensis) (UniProt Q5JF32); assay: SEC; gel filtration of purified TkoPCNA1 proteins; 160 μM; both purified

B1: Proliferating cell nuclear antigen from Pyrococcus furiosus (protein, UniProt O73947 1-249)
chain: T2 sequence
In the case of B1, the binding [1] is reported as “binds”.

B2: Endonuclease Q from Pyrococcus furiosus (enzyme, UniProt Q8U0N5 1-424)
chain: T1 sequence
In the case of B2, the binding [2] is reported as “binds”.

B3: Endonuclease Q from Thermococcus kodakarensis with truncation of the C-terminal PIP-box-like sequence (deletion of residues 409-421) (domain or fragment, UniProt Q5JI33 1-408)
chain: MIVDADLHIHSRYSKAVSKAMTIPNLAENARFKGLEMVGTGDILNPNWEKELLKYTKKVDEGTYERNGIRFLLTTEVEDTRRVHHVLIFPNIETVREMRERLKPYSSDIESEGRPHLTLSAAEIADIANELDVLIGPAHAFTPWTSLYKEYDSLKEAYNGAKIHFLELGLSADSEMADMIKAHHKLTYLSNSDAHSPMPHRLGREFNRFEVNEATFEEIRKAILKRGRKIVLNAGLDPRLGKYHLTACSRCYTKYSLEEAKAFRWKCPKCGGRIKKGVRDRILELADTTERPKDRPPYLHLAPLAEIIAMVLGKGVETKAVRLVWERFLREFGSEIRVLVDVPVEELAKVHEEVAKAVWAYRKGKLIVISGGGGKYGEIKLPDEVRNARIEDLETIEVEVPNVEEKPK
B3 was tested, and the binding [3] was “no binding (tested: 800 nM)”.

B4: TkoPCNA1 with the mutations E143A/D147A at the interface of the protomers (protein, UniProt Q5JF32 1-249)
chain: T3 sequence with E143A, D147A
With B4 the binding [4] was “no binding (tested: 160 μM)”.
